Literature values in patent US20180014536A1, “AGENT FOR IMPROVING PLANT GROWTH AND METHOD FOR PRODUCING PLANT USING SAME” (FUSO CHEMICAL CO., LTD., priority 2015, published 2018).
At least one compound was matched to its structure with a doubt left.

Test system: plant
Settings: compared with isothianate, known to improve resistance to high temperature stress; cited from earlier work

## C[n+]1cc2c3c(ccc2c2ccc4cc5c(cc4c21)OCO5)OCO3 [Sanguinarine, sanguinarine, reference compound]
  stress activity relative to isothianate: approximately 10 times
